# According to the supplement of paper PMC4604168 (melanoma cell lines):
# This is one part of the list. Repeats are few or missing, and single values can be far off.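 Cells were imaged in 1,536-well plates, and nuclei stained with an antibody against cleaved PARP were counted against all DNA-stained nuclei to give the apoptosis fraction. Screening doses were chosen to leave most cells alive, and resting and induced cleaved-PARP levels differ strongly between cell lines.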
# Columns and labels:
# Assay in all cases: cleaved PARP positive nuclei fraction relative to DMSO control; melanoma cells; higher = more apoptosis
# Conditions in all cases: library dose: low library concentration; 72 h
# MZ2-MEL = tested on: MZ2-MEL
# MeWo = tested on: MeWo
# RPMI7951 = tested on: RPMI7951
# RVH-421 = tested on: RVH-421
# SkMel28 = tested on: SkMel28
# SkMel2 = tested on: SkMel2
# SkMel30 = tested on: SkMel30
# UACC62 = tested on: UACC62
# WM115 = tested on: WM115
# WM1716 = tested on: WM1716
# WM1745 = tested on: WM1745
# WM3526 = tested on: WM3526
# WM3619 = tested on: WM3619
# WM451Lu = tested on: WM451Lu
SMILES,cleaved PARP positive nuclei fraction (MZ2-MEL),cleaved PARP positive nuclei fraction (MeWo),cleaved PARP positive nuclei fraction (RPMI7951),cleaved PARP positive nuclei fraction (RVH-421),cleaved PARP positive nuclei fraction (SkMel28),cleaved PARP positive nuclei fraction (SkMel2),cleaved PARP positive nuclei fraction (SkMel30),cleaved PARP positive nuclei fraction (UACC62),cleaved PARP positive nuclei fraction (WM115),cleaved PARP positive nuclei fraction (WM1716),cleaved PARP positive nuclei fraction (WM1745),cleaved PARP positive nuclei fraction (WM3526),cleaved PARP positive nuclei fraction (WM3619),cleaved PARP positive nuclei fraction (WM451Lu)
"Cn1c(=O)n(-c2ccc(C(C)(C)C#N)cc2)c2c3cc(-c4cnc5ccccc5c4)ccc3ncc21 + C#Cc1cccc(Nc2ncnc3cc(OCCOC)c(OCCOC)cc23)c1 [erlotinib] (first compound 0.004 µM, partner dose 0.8 µM)",78.4%,52.3%,152%,103%,99.4%,78.6%,36.2%,266%,69.1%,56.2%,113%,76.3%,102%,34.7%
"CCCS(=O)(=O)Nc1ccc(F)c(C(=O)c2c[nH]c3ncc(Cl)cc23)c1F + Nc1cccc2c1CN(C1CCC(=O)NC1=O)C2=O [lenalidomide] (first compound 0.08 µM, partner dose 1 µM)",74.2%,94.3%,346%,330%,127%,41.9%,65.9%,89.5%,75.3%,64.8%,62.5%,49.7%,95.4%,74.9%
"C[C@@H](Oc1cc(-c2cnn(C3CCNCC3)c2)cnc1N)c1c(Cl)ccc(F)c1Cl [Crizotinib] + CN1CCN(c2ccc3nc(-c4c(N)c5c(F)cccc5[nH]c4=O)[nH]c3c2)CC1 [Dovitinib] (first compound 0.2 µM, partner dose 0.1 µM)",100%,41.9%,88.5%,177%,85.2%,64.6%,60%,172%,152%,56.2%,95.7%,78.1%,75.9%,87.8%
"Nc1ccn([C@@H]2O[C@H](CO)[C@@H](O)C2(F)F)c(=O)n1 [gemcitabine] + CCCS(=O)(=O)Nc1ccc(F)c(C(=O)c2c[nH]c3ncc(Cl)cc23)c1F [PLX4720] (first compound 0.0004 µM, partner dose 0.08 µM)",139%,79.9%,73%,130%,90.6%,77.5%,76.9%,224%,117%,60%,107%,203%,229%,191%
"CN1CCN(c2ccc3nc(-c4c(N)c5c(F)cccc5[nH]c4=O)[nH]c3c2)CC1 [Dovitinib] + Cc1nc(Nc2ncc(C(=O)Nc3c(C)cccc3Cl)s2)cc(N2CCN(CCO)CC2)n1 [dasatanib] (first compound 0.1 µM, partner dose 0.004 µM)",257%,87.1%,587%,43.6%,111%,272%,224%,119%,199%,455%,135%,196%,78.9%,129%
"O=C(O)c1ccc2c(c1)nc(Nc1cccc(Cl)c1)c1ccncc12 + COCC[n+]1c2c(n(Cc3cnccn3)c1C)C(=O)c1ccccc1C2=O [YM155] (first compound 0.4 µM, partner dose 0.0004 µM)",135%,93.7%,93.9%,38.3%,87.7%,141%,193%,139%,198%,141%,80.7%,117%,89.1%,125%
"CC(C)C[C@H](NC(=O)[C@H](Cc1ccccc1)NC(=O)c1cnccn1)B(O)O [Bortezomib] + Cn1nnc2c(C(N)=O)ncn2c1=O [temozolomide] (first compound 0.001 µM, partner dose 2 µM)",298%,56.6%,101%,240%,62.8%,75.6%,299%,212%,47.9%,937%,560%,50%,990%,116%
"C[C@@H](Oc1cc(-c2cnn(C3CCNCC3)c2)cnc1N)c1c(Cl)ccc(F)c1Cl [Crizotinib] + C#Cc1cccc(Nc2ncnc3cc(OCCOC)c(OCCOC)cc23)c1 [erlotinib] (first compound 0.2 µM, partner dose 0.8 µM)",71.4%,118%,125%,97.2%,53.8%,130%,134%,125%,62.2%,170%,119%,47%,90.2%,142%
"O=C(O)[C@@H]1[O][Sb](=[O])([O][Sb]2(=[O])[O][C@H]([C@H](O)CO)[C@H](O)[C@H](C(=O)O)[O]2)[O][C@H]([C@H](O)CO)[C@@H]1O (stereo partly drawn) [stibogluconate] + CCCS(=O)(=O)Nc1ccc(F)c(C(=O)c2c[nH]c3ncc(Cl)cc23)c1F [PLX4720] (first compound 2 µM, partner dose 0.08 µM)",30.1%,72.3%,146%,90.3%,76.4%,175%,92.9%,79.3%,104%,115%,95.2%,165%,97.5%,174%
"Nc1ncn([C@H]2C[C@H](O)[C@@H](CO)O2)c(=O)n1 [decitabine] + CC(=O)c1c(C)c2cnc(Nc3ccc(N4CCNCC4)cn3)nc2n(C2CCCC2)c1=O [palbociclib] (first compound 0.1 µM, partner dose 0.04 µM)",25.9%,69.8%,157%,85.2%,68.8%,37.4%,112%,139%,95.3%,110%,124%,72.3%,110%,52.7%
"O=C(O)[C@@H]1[O][Sb](=[O])([O][Sb]2(=[O])[O][C@H]([C@H](O)CO)[C@H](O)[C@H](C(=O)O)[O]2)[O][C@H]([C@H](O)CO)[C@@H]1O (stereo partly drawn) [stibogluconate] + Cc1nc(Nc2ncc(C(=O)Nc3c(C)cccc3Cl)s2)cc(N2CCN(CCO)CC2)n1 [dasatanib] (first compound 2 µM, partner dose 0.004 µM)",80.5%,84.3%,239%,102%,57.6%,152%,54.6%,98.2%,138%,122%,149%,113%,101%,94.3%
"Cn1c(=O)n(-c2ccc(C(C)(C)C#N)cc2)c2c3cc(-c4cnc5ccccc5c4)ccc3ncc21 + C[C@@H](Oc1cc(-c2cnn(C3CCNCC3)c2)cnc1N)c1c(Cl)ccc(F)c1Cl [Crizotinib] (first compound 0.004 µM, partner dose 0.2 µM)",71.5%,114%,44%,30.3%,87.6%,113%,58.8%,30.6%,124%,18.8%,102%,123%,113%,91.6%
"CS(=O)(=O)CCNCc1ccc(-c2ccc3ncnc(Nc4ccc(OCc5cccc(F)c5)c(Cl)c4)c3c2)o1 [lapatinib] + Cc1nc(Nc2ncc(C(=O)Nc3c(C)cccc3Cl)s2)cc(N2CCN(CCO)CC2)n1 [dasatanib] (first compound 0.8 µM, partner dose 0.004 µM)",156%,112%,81.2%,266%,90.5%,69.2%,66.2%,148%,131%,34.1%,139%,38.3%,111%,25.6%
"Nc1ncn([C@H]2C[C@H](O)[C@@H](CO)O2)c(=O)n1 [decitabine] + Clc1ccc(Nc2nnc(Cc3ccncc3)c3ccccc23)cc1 [vatalanib] (first compound 0.1 µM, partner dose 2 µM)",101%,138%,66.9%,97.5%,189%,65.7%,107%,140%,150%,89.7%,127%,276%,102%,66.9%
"Cc1cc(Nc2cc(N3CCN(C)CC3)nc(/C=C/c3ccccc3)n2)n[nH]1 + CS(=O)(=O)CCNCc1ccc(-c2ccc3ncnc(Nc4ccc(OCc5cccc(F)c5)c(Cl)c4)c3c2)o1 [lapatinib] (first compound 0.04 µM, partner dose 0.8 µM)",187%,18.2%,136%,220%,97.7%,50%,31%,57%,34.6%,69.4%,105%,208%,97.4%,282%
"Cc1cc(Nc2cc(N3CCN(C)CC3)nc(/C=C/c3ccccc3)n2)n[nH]1 + C#Cc1cccc(Nc2ncnc3cc(OCCOC)c(OCCOC)cc23)c1 [erlotinib] (first compound 0.04 µM, partner dose 0.8 µM)",116%,58%,114%,120%,182%,119%,89.4%,329%,146%,83%,117%,60.7%,106%,262%
"CNC(=O)c1cc(Oc2ccc(NC(=O)Nc3ccc(Cl)c(C(F)(F)F)c3)cc2)ccn1 [sorafenib] + C=CCNC1=C2C[C@@H](C)C[C@H](OC)[C@H](O)[C@@H](C)/C=C(\C)[C@H](OC(N)=O)[C@@H](OC)/C=C\C=C(/C)C(=O)NC(=CC1=O)C2=O [Tanespimycin] (first compound 0.4 µM, partner dose 0.002 µM)",51.3%,97.4%,34.8%,74%,85.4%,153%,49.3%,209%,61.5%,177%,95.2%,30%,87.8%,104%
"O=C(O)[C@@H]1[O][Sb](=[O])([O][Sb]2(=[O])[O][C@H]([C@H](O)CO)[C@H](O)[C@H](C(=O)O)[O]2)[O][C@H]([C@H](O)CO)[C@@H]1O (stereo partly drawn) [stibogluconate] + CNC(=O)c1cc(Oc2ccc(NC(=O)Nc3ccc(Cl)c(C(F)(F)F)c3)cc2)ccn1 [sorafenib] (first compound 2 µM, partner dose 0.4 µM)",106%,48.5%,171%,107%,67.8%,81.1%,66.7%,26.8%,63.8%,103%,100%,144%,95.1%,89.4%
"CCCS(=O)(=O)Nc1ccc(F)c(C(=O)c2c[nH]c3ncc(Cl)cc23)c1F + C[C@]1(c2nc3c(C(N)=O)cccc3[nH]2)CCCN1 [Veliparib] (first compound 0.08 µM, partner dose 1.4 µM)",154%,51.3%,98%,128%,66.5%,54.7%,179%,168%,145%,148%,109%,104%,99.6%,70.3%
"Cc1cc(Nc2cc(N3CCN(C)CC3)nc(/C=C/c3ccccc3)n2)n[nH]1 + O=C(O)[C@@H]1[O][Sb](=[O])([O][Sb]2(=[O])[O][C@H]([C@H](O)CO)[C@H](O)[C@H](C(=O)O)[O]2)[O][C@H]([C@H](O)CO)[C@@H]1O [stibogluconate] (first compound 0.04 µM, partner dose 2 µM)",69.2%,88.2%,24.6%,165%,65.1%,117%,73.9%,191%,114%,33.4%,110%,161%,84.7%,23.5%
"CS(=O)(=O)CCNCc1ccc(-c2ccc3ncnc(Nc4ccc(OCc5cccc(F)c5)c(Cl)c4)c3c2)o1 [lapatinib] + Nc1ncn([C@H]2C[C@H](O)[C@@H](CO)O2)c(=O)n1 [decitabine] (first compound 0.8 µM, partner dose 0.1 µM)",135%,77.3%,123%,108%,47.7%,191%,97.5%,83.5%,72.6%,75.4%,88.4%,38.4%,108%,36.8%
"Cc1cc(Nc2cc(N3CCN(C)CC3)nc(/C=C/c3ccccc3)n2)n[nH]1 + CNC(=O)c1cc(Oc2ccc(NC(=O)Nc3ccc(Cl)c(C(F)(F)F)c3)cc2)ccn1 [sorafenib] (first compound 0.04 µM, partner dose 0.4 µM)",130%,103%,88.7%,49.7%,76.7%,127%,22.4%,93.5%,119%,77%,121%,388%,105%,69.9%
"Nc1nc(F)nc2c1ncn2[C@@H]1O[C@H](CO)[C@@H](O)[C@@H]1O [fludarabine] + Clc1ccc(Nc2nnc(Cc3ccncc3)c3ccccc23)cc1 [vatalanib] (first compound 0.2 µM, partner dose 2 µM)",93.5%,833%,96.3%,71.6%,246%,617%,4840%,64.6%,124%,14.1%,101%,620%,103%,520%
"C[C@@H](Oc1cc(-c2cnn(C3CCNCC3)c2)cnc1N)c1c(Cl)ccc(F)c1Cl [Crizotinib] + Cc1nc(Nc2ncc(C(=O)Nc3c(C)cccc3Cl)s2)cc(N2CCN(CCO)CC2)n1 [dasatanib] (first compound 0.2 µM, partner dose 0.004 µM)",65.8%,61.5%,260%,152%,134%,116%,140%,229%,181%,73.7%,123%,89.9%,105%,55.3%
"CC(C)C[C@H](NC(=O)[C@H](Cc1ccccc1)NC(=O)c1cnccn1)B(O)O [Bortezomib] + C[C@]1(c2nc3c(C(N)=O)cccc3[nH]2)CCCN1 [Veliparib] (first compound 0.001 µM, partner dose 1.4 µM)",145%,84.8%,219%,99.4%,71.6%,201%,42.9%,615%,212%,138%,188%,39.7%,665%,116%
"O=C(O)c1ccc2c(c1)nc(Nc1cccc(Cl)c1)c1ccncc12 + Nc1cccc2c1CN(C1CCC(=O)NC1=O)C2=O [lenalidomide] (first compound 0.4 µM, partner dose 1 µM)",114%,135%,91.4%,183%,169%,154%,164%,39.1%,105%,78.7%,90.4%,80.1%,93.8%,30.5%
"CS(=O)(=O)CCNCc1ccc(-c2ccc3ncnc(Nc4ccc(OCc5cccc(F)c5)c(Cl)c4)c3c2)o1 [lapatinib] + Nc1nc(F)nc2c1ncn2[C@@H]1O[C@H](CO)[C@@H](O)[C@@H]1O [fludarabine] (first compound 0.8 µM, partner dose 0.2 µM)",143%,609%,160%,105%,44%,249%,1090%,202%,130%,60.7%,89.2%,103%,81.2%,125%

# Another view of part of the listing above.
SMILES | cleaved PARP positive nuclei fraction (MZ2-MEL) | cleaved PARP positive nuclei fraction (MeWo) | cleaved PARP positive nuclei fraction (RPMI7951) | cleaved PARP positive nuclei fraction (RVH-421) | cleaved PARP positive nuclei fraction (SkMel28) | cleaved PARP positive nuclei fraction (SkMel2) | cleaved PARP positive nuclei fraction (SkMel30) | cleaved PARP positive nuclei fraction (UACC62) | cleaved PARP positive nuclei fraction (WM115) | cleaved PARP positive nuclei fraction (WM1716) | cleaved PARP positive nuclei fraction (WM1745) | cleaved PARP positive nuclei fraction (WM3526) | cleaved PARP positive nuclei fraction (WM3619) | cleaved PARP positive nuclei fraction (WM451Lu)
O=C(O)[C@@H]1[O][Sb](=[O])([O][Sb]2(=[O])[O][C@H]([C@H](O)CO)[C@H](O)[C@H](C(=O)O)[O]2)[O][C@H]([C@H](O)CO)[C@@H]1O (stereo partly drawn) [stibogluconate] + Cc1nc(Nc2ncc(C(=O)Nc3c(C)cccc3Cl)s2)cc(N2CCN(CCO)CC2)n1 [dasatanib] (first compound 2 µM, partner dose 0.004 µM) | 80.5% | 84.3% | 239% | 102% | 57.6% | 152% | 54.6% | 98.2% | 138% | 122% | 149% | 113% | 101% | 94.3%
Cn1c(=O)n(-c2ccc(C(C)(C)C#N)cc2)c2c3cc(-c4cnc5ccccc5c4)ccc3ncc21 + C[C@@H](Oc1cc(-c2cnn(C3CCNCC3)c2)cnc1N)c1c(Cl)ccc(F)c1Cl [Crizotinib] (first compound 0.004 µM, partner dose 0.2 µM) | 71.5% | 114% | 44% | 30.3% | 87.6% | 113% | 58.8% | 30.6% | 124% | 18.8% | 102% | 123% | 113% | 91.6%
